Measured values published in the supplement of paper PMC6411743.
± gives the standard deviation of the averaged measurements. Only a part is listed here, and it is no random draw.

Protein sequences, listed by entry. Tags and fused reporters are not part of them. Lines headed by an entry give the natural chain unless they say otherwise; changes in a name come on top.
UniProt Q15208: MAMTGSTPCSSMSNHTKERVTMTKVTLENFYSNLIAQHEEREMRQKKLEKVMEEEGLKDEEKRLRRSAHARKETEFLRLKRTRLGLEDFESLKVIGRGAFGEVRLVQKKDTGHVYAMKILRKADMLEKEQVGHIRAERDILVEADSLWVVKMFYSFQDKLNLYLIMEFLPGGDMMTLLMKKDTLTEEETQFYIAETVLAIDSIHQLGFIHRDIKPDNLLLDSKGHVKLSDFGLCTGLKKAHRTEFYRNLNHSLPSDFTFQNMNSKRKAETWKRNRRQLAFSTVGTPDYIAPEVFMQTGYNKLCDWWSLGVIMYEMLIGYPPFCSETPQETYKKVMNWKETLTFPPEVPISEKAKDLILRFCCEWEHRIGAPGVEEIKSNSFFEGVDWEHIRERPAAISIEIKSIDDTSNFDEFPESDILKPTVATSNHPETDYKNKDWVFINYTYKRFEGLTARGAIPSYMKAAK
UniProt Q15072: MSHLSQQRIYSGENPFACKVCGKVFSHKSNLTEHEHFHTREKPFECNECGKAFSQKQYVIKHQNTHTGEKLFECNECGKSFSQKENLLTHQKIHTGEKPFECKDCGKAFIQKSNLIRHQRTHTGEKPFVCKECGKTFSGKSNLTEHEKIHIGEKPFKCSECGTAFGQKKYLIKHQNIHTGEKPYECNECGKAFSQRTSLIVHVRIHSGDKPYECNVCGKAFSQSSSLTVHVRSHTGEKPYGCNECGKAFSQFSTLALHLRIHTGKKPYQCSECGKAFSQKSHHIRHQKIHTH
UniProt Q15751: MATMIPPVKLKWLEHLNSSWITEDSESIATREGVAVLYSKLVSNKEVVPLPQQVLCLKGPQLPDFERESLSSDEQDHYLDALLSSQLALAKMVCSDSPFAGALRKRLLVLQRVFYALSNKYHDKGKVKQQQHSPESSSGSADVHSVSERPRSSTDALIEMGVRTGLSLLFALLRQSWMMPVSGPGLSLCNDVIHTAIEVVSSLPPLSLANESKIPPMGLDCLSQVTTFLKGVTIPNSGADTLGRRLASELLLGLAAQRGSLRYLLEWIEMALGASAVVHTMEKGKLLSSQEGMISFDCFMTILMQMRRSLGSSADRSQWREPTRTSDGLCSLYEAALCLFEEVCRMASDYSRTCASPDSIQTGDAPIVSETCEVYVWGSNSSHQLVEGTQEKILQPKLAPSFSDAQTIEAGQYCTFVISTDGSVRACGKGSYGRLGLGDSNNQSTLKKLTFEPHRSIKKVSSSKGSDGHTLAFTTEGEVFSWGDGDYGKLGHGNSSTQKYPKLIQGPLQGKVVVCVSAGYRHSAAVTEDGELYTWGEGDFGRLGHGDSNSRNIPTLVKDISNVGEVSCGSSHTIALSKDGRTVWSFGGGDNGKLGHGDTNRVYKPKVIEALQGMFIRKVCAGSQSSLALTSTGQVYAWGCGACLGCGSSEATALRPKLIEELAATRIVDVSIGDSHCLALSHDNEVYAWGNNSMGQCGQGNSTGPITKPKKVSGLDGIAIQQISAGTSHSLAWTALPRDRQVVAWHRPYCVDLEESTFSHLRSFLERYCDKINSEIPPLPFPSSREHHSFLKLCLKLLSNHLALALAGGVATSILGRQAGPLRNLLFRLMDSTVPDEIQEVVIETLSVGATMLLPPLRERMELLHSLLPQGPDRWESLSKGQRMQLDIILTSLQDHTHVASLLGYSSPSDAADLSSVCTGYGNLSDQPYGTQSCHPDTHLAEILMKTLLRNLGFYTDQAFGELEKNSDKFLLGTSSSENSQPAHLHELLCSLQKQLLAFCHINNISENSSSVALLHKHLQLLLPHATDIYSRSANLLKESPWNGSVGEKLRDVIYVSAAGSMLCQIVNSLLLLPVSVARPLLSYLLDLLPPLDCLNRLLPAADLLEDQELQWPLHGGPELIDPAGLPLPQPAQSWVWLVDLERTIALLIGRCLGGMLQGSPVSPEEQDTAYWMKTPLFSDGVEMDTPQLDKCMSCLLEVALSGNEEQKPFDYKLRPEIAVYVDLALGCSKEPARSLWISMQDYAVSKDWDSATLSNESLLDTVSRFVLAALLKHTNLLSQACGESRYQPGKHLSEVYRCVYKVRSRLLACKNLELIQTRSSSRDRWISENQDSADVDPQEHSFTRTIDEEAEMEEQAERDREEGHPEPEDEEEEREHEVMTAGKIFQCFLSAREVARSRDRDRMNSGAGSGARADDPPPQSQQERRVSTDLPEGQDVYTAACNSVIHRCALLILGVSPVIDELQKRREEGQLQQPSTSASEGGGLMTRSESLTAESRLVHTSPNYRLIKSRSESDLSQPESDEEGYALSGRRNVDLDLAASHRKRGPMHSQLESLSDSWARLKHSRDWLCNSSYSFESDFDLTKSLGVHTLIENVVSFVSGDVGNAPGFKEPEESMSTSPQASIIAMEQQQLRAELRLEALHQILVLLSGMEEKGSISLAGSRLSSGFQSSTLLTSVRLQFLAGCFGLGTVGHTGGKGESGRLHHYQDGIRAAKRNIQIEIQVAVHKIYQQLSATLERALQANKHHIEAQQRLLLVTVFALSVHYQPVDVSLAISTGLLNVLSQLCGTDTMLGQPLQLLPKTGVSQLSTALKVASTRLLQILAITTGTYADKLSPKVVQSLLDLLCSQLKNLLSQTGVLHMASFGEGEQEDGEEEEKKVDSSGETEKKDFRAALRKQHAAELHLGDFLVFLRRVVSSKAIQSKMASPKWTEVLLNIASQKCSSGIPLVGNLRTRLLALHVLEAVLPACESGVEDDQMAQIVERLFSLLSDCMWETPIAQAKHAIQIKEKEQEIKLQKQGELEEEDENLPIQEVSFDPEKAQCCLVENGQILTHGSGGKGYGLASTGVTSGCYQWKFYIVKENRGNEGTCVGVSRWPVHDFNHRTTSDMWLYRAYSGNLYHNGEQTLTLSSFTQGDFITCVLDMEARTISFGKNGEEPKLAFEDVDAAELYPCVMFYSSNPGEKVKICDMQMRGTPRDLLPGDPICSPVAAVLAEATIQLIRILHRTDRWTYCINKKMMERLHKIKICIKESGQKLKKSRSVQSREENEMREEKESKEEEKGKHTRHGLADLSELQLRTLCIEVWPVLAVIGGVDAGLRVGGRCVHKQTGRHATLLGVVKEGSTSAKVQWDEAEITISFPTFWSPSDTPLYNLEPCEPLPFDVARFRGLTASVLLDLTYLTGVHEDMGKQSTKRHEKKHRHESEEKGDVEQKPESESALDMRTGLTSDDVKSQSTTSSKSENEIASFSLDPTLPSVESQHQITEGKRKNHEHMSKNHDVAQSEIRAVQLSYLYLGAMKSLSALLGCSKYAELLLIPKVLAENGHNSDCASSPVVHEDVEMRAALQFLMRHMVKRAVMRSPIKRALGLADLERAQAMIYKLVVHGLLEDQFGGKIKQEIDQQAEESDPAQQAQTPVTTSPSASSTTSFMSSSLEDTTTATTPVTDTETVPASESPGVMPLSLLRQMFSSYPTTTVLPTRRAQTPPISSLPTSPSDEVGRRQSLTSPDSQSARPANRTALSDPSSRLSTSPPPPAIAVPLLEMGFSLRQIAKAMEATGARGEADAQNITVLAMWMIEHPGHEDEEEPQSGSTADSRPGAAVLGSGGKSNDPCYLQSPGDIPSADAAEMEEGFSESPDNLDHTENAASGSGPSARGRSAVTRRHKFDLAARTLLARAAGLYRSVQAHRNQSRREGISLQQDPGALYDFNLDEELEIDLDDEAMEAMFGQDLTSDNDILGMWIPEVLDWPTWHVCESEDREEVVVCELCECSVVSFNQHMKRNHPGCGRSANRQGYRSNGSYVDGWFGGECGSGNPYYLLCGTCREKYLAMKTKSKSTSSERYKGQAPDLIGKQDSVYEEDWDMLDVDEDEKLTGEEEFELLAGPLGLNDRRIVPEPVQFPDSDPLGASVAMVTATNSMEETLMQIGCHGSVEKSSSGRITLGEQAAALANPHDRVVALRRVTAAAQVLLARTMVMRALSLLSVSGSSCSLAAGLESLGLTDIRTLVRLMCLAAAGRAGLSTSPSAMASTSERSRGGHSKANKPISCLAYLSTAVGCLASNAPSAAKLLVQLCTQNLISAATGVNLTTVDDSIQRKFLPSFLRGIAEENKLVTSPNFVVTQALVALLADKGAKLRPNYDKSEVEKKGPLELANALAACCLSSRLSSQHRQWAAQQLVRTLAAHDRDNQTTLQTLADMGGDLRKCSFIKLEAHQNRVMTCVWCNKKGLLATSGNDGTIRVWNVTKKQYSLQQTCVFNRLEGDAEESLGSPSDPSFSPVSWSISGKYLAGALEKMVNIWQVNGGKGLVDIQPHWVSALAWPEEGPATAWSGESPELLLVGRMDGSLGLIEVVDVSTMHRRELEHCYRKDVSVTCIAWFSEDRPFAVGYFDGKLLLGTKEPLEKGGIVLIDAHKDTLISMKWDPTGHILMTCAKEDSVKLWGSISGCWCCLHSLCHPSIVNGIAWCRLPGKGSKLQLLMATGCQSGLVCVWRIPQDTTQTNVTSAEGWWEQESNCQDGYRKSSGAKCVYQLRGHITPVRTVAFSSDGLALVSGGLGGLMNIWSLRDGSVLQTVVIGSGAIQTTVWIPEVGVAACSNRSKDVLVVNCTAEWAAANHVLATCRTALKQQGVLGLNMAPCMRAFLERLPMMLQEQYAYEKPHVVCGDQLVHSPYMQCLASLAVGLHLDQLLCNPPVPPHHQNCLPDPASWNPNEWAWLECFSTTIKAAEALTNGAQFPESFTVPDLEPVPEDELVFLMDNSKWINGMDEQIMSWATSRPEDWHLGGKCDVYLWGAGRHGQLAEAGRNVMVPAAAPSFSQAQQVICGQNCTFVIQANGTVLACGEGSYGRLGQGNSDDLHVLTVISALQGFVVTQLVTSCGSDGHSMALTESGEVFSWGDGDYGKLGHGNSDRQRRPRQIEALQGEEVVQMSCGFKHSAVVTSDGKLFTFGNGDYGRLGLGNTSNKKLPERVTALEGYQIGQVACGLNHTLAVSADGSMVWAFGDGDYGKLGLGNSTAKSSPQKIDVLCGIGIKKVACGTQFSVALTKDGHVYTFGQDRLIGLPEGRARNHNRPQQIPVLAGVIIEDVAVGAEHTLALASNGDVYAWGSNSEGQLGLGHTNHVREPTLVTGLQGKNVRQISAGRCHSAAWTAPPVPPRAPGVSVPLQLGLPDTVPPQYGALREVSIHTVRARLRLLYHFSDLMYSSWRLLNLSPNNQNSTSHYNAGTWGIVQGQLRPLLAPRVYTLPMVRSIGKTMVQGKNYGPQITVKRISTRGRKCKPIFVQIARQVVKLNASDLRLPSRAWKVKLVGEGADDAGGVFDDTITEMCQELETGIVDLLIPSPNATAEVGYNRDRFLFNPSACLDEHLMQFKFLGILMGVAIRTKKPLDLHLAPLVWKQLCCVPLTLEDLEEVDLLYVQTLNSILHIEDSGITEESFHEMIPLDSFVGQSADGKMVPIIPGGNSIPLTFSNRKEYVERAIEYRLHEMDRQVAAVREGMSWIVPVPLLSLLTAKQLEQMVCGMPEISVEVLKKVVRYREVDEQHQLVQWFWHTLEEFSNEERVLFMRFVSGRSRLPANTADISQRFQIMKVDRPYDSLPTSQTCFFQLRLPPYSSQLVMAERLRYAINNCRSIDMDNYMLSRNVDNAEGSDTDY
UniProt Q15061: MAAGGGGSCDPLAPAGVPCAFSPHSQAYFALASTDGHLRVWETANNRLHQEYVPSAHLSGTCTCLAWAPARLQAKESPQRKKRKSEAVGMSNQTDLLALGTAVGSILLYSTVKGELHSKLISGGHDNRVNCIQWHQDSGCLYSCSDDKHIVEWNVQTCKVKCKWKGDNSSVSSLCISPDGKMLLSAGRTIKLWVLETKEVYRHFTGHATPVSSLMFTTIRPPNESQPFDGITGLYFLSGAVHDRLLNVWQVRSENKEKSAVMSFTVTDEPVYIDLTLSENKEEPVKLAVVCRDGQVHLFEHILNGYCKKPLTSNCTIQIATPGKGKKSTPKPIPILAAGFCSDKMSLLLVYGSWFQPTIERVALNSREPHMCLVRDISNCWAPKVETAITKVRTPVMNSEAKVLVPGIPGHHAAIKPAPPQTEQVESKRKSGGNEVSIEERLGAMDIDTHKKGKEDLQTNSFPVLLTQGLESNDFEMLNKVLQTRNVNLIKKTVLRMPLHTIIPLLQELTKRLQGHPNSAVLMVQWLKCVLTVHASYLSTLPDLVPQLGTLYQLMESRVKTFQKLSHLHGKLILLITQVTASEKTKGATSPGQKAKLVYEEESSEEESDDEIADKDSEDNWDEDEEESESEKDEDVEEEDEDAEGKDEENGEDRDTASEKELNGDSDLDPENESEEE
UniProt Q2TAA2: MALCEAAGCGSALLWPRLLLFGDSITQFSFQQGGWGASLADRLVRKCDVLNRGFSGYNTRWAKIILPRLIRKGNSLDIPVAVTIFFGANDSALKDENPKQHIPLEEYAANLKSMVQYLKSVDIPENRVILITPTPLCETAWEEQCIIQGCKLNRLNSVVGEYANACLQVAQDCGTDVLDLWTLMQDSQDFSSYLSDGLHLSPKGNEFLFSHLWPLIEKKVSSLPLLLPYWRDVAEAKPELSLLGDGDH

compound: Nc1ncnc2c1ncn2[C@@H]1O[C@H](COP(=O)(O)OP(=O)(O)OP(=O)(O)O)[C@@H](O)[C@H]1O [adenosine triphosphate]; assay: NP40-soluble protein abundance relative to vehicle (solubility fold change) (ratio); higher = more soluble protein in presence of ATP; settings: concentration: 6mM
Outline: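 Across three independent experiments, values are fold changes against the detergent-processed vehicle for each replicate, based on vsn-normalised intensities. The samples were Jurkat crude lysate treated with eight concentrations (0.1 to 10 mM) for 10 min at room temperature and then 3 min at 37 °C. Lysate was solubilised with 0.8% NP40 and benzonase, ultracentrifuged, and the supernatant analysed by TMT-labelled LC-MS/MS.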

Target	NP40-soluble protein abundance
UniProt Q15006	0.959 ± 0.027
UniProt Q1ED39	1.21 ± 0.051
NONO (UniProt Q15233)	1.55 ± 0.046
GNPTAB (UniProt Q3T906)	1.02 ± 0.19
GINS1 (UniProt Q14691)	0.955 ± 0.046
QPRT (UniProt Q15274)	0.914 ± 0.034
UniProt Q14978-2	0.968 ± 0.056
UniProt Q14934 and related entries	1.15 ± 0.094
CAMK4 (UniProt Q16566)	0.965 ± 0.051
UniProt Q15208	1.04 ± 0.09
UniProt Q15084 and related entries	0.903 ± 0.021
UniProt Q14CB8 and related entries	1.28 ± 0.093
UniProt Q3ZCQ8 and related entries	0.97 ± 0.066
UniProt Q15286 and related entries	0.973 ± 0.069
UniProt Q2M296 and related entries	1.15 ± 0.036
UniProt Q15642-2|Q15642-3|Q15642-4|W4VSQ9	0.979 ± 0.078
Q1RLN5 and related entries (UniProt Q8IWW6)	1 ± 0.048
UBXN2B (UniProt Q14CS0)	1.01 ± 0.02

Target	NP40-soluble protein abundance
ZNF146 (UniProt Q15072)	0.976 ± 0.089
DPYSL2 (UniProt Q16555)	0.979 ± 0.035
HERC1 (UniProt Q15751)	0.949 ± 0.043
WDR43 (UniProt Q15061)	1.41 ± 0.12
UniProt Q3V6T2 and related entries	1.02 ± 0.05
UniProt Q15154 and related entries	1.08 ± 0.087
PPP2R5A (UniProt Q15172)	1.01 ± 0.047
UniProt Q16643 and related entries	0.869 ± 0.12
UniProt Q15365	1.04 ± 0.018
UniProt Q16659	1.02 ± 0.12
SEC23B (UniProt Q15437)	0.928 ± 0.15
UniProt Q17R31 and related entries	1.01 ± 0.012
DDB1 (UniProt Q16531)	0.949 ± 0.092
UniProt Q1W6H9	1.15 ± 0.12
RASA3 (UniProt Q14644)	0.968 ± 0.051
SUZ12 (UniProt Q15022)	1.23 ± 0.069
IAH1 (UniProt Q2TAA2)	0.943 ± 0.11
UniProt Q4J6C6 and related entries	0.989 ± 0.083

same assay, conditions: concentration: 8mM

Target	NP40-soluble protein abundance
UniProt Q15006	0.987 ± 0.014
UniProt Q1ED39	1.238 ± 0.011
NONO (UniProt Q15233)	1.51 ± 0.022
GNPTAB (UniProt Q3T906)	0.943 ± 0.092
GINS1 (UniProt Q14691)	0.929 ± 0.046
QPRT (UniProt Q15274)	0.932 ± 0.068
UniProt Q14978-2	1 ± 0.072
UniProt Q14934 and related entries	1.07 ± 0.18
CAMK4 (UniProt Q16566)	0.924 ± 0.022
UniProt Q15208	1.1 ± 0.033
UniProt Q15084 and related entries	0.8855 ± 0.0043
UniProt Q14CB8 and related entries	1.24 ± 0.1
UniProt Q3ZCQ8 and related entries	0.993 ± 0.081
UniProt Q15286 and related entries	0.998 ± 0.059
UniProt Q2M296 and related entries	1.18 ± 0.059
UniProt Q15642-2|Q15642-3|Q15642-4|W4VSQ9	0.961 ± 0.021
Q1RLN5 and related entries (UniProt Q8IWW6)	1.1 ± 0.033
UBXN2B (UniProt Q14CS0)	0.827 ± 0.11

Target	NP40-soluble protein abundance
ZNF146 (UniProt Q15072)	1.1 ± 0.13
DPYSL2 (UniProt Q16555)	0.987 ± 0.035
HERC1 (UniProt Q15751)	1 ± 0.048
WDR43 (UniProt Q15061)	1.39 ± 0.087
UniProt Q3V6T2 and related entries	0.984 ± 0.027
UniProt Q15154 and related entries	1.03 ± 0.039
PPP2R5A (UniProt Q15172)	1 ± 0.059
UniProt Q16643 and related entries	0.88 ± 0.054
UniProt Q15365	0.985 ± 0.014
UniProt Q16659	1.07 ± 0.17
SEC23B (UniProt Q15437)	1.05 ± 0.035
UniProt Q17R31 and related entries	1.02 ± 0.026
DDB1 (UniProt Q16531)	1.02 ± 0.045
UniProt Q1W6H9	1.1 ± 0.056
RASA3 (UniProt Q14644)	1.01 ± 0.086
SUZ12 (UniProt Q15022)	1.32 ± 0.076
IAH1 (UniProt Q2TAA2)	0.9928 ± 0.0054
UniProt Q4J6C6 and related entries	1.03 ± 0.058

same assay, conditions: concentration: 10mM

Target	NP40-soluble protein abundance
UniProt Q15006	0.976 ± 0.035
UniProt Q1ED39	1.33 ± 0.046
NONO (UniProt Q15233)	1.52 ± 0.019
GNPTAB (UniProt Q3T906)	0.926 ± 0.1
GINS1 (UniProt Q14691)	0.897 ± 0.083
QPRT (UniProt Q15274)	0.945 ± 0.035
UniProt Q14978-2	1.06 ± 0.023
UniProt Q14934 and related entries	1.05 ± 0.083
CAMK4 (UniProt Q16566)	0.952 ± 0.031
UniProt Q15208	1.08 ± 0.023
UniProt Q15084 and related entries	0.895 ± 0.043
UniProt Q14CB8 and related entries	1.3 ± 0.13
UniProt Q3ZCQ8 and related entries	0.986 ± 0.074
UniProt Q15286 and related entries	0.972 ± 0.058
UniProt Q2M296 and related entries	1.25 ± 0.14
UniProt Q15642-2|Q15642-3|Q15642-4|W4VSQ9	0.9861 ± 0.0047
Q1RLN5 and related entries (UniProt Q8IWW6)	1.14 ± 0.12
UBXN2B (UniProt Q14CS0)	0.9282 ± 0.0053

Target	NP40-soluble protein abundance
ZNF146 (UniProt Q15072)	1.06 ± 0.078
DPYSL2 (UniProt Q16555)	0.97 ± 0.041
HERC1 (UniProt Q15751)	0.978 ± 0.063
WDR43 (UniProt Q15061)	1.51 ± 0.027
UniProt Q3V6T2 and related entries	0.983 ± 0.027
UniProt Q15154 and related entries	1.07 ± 0.042
PPP2R5A (UniProt Q15172)	1 ± 0.067
UniProt Q16643 and related entries	1.03 ± 0.067
UniProt Q15365	0.973 ± 0.032
UniProt Q16659	1.02 ± 0.097
SEC23B (UniProt Q15437)	1.04 ± 0.054
UniProt Q17R31 and related entries	1.04 ± 0.04
DDB1 (UniProt Q16531)	1.01 ± 0.061
UniProt Q1W6H9	1.11 ± 0.07
RASA3 (UniProt Q14644)	1 ± 0.076
SUZ12 (UniProt Q15022)	1.34 ± 0.076
IAH1 (UniProt Q2TAA2)	0.939 ± 0.038
UniProt Q4J6C6 and related entries	1.01 ± 0.068
